Results deposited as PubChem BioAssay AID1259405 (NCATS, 2018).
Test: 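Mouse-designed siRNAs used to find CHO productivity engineering targets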 (primary screen). Cells: Chinese hamster CHO-K1 ovary cells with stable secreted eGFP expression. Knock-down reagent: single siRNA against mouse genes, 0.8 pmol siRNA per well (2 µl of 400 nM stock). Timing: 3 days. Detection: 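Percent of the per-plate non-targeting control median for intracellular GFP per well by laser scanning cytometry and for cell viability by ATP luminescence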. Reading the numbers: GFP, % of control: higher = more GFP per well, higher productivity; viability (ATP), % of control: higher = more viable cells (more ATP). Hit rule: 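Called active when intracellular GFP, relative to negative control, is at or above 120%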.
This is a random part of about 50,000 reagents tested. About 4,000 of all reagents (8%) count as active. 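Mouse siRNA library applied to hamster cells; one well for each siRNA.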 Reagents against one gene are numbered here.

{"gene": "Mboat7", "siRNA no.": 1, "GFP, % of control": 107, "viability (ATP), % of control": 87.8, "activity call": "inactive"}
{"gene": "Mboat7", "siRNA no.": 2, "GFP, % of control": 41.5, "viability (ATP), % of control": 30.3, "activity call": "inactive"}
{"gene": "Mboat7", "siRNA no.": 3, "GFP, % of control": 77, "viability (ATP), % of control": 83.8, "activity call": "inactive"}
{"gene": "Ap2s1", "siRNA no.": 1, "GFP, % of control": 182, "viability (ATP), % of control": 62.3, "activity call": "active"}
{"gene": "Ap2s1", "siRNA no.": 2, "GFP, % of control": 70.9, "viability (ATP), % of control": 64, "activity call": "inactive"}
{"gene": "Ap2s1", "siRNA no.": 3, "GFP, % of control": 72, "viability (ATP), % of control": 41.4, "activity call": "inactive"}
{"gene": "Slc22a6", "siRNA no.": 1, "GFP, % of control": 35.8, "viability (ATP), % of control": 54, "activity call": "inactive"}
{"gene": "Slc22a6", "siRNA no.": 2, "GFP, % of control": 57.4, "viability (ATP), % of control": 63.5, "activity call": "inactive"}
{"gene": "Slc22a6", "siRNA no.": 3, "GFP, % of control": 63.9, "viability (ATP), % of control": 72.1, "activity call": "inactive"}
{"gene": "Slc35d3", "siRNA no.": 1, "GFP, % of control": 62.5, "viability (ATP), % of control": 49.7, "activity call": "inactive"}
{"gene": "Slc35d3", "siRNA no.": 2, "GFP, % of control": 104, "viability (ATP), % of control": 69.6, "activity call": "inactive"}
{"gene": "Slc35d3", "siRNA no.": 3, "GFP, % of control": 47.7, "viability (ATP), % of control": 49.8, "activity call": "inactive"}
{"gene": "Wdr74", "siRNA no.": 1, "GFP, % of control": 127, "viability (ATP), % of control": 94.3, "activity call": "active"}
{"gene": "Wdr74", "siRNA no.": 2, "GFP, % of control": 77.2, "viability (ATP), % of control": 76.5, "activity call": "inactive"}
{"gene": "Wdr74", "siRNA no.": 3, "GFP, % of control": 92.1, "viability (ATP), % of control": 123, "activity call": "inactive"}
{"gene": "Zfp87", "siRNA no.": 1, "GFP, % of control": 77.7, "viability (ATP), % of control": 70.8, "activity call": "inactive"}
{"gene": "Zfp87", "siRNA no.": 2, "GFP, % of control": 84.9, "viability (ATP), % of control": 98.9, "activity call": "inactive"}
{"gene": "Zfp87", "siRNA no.": 3, "GFP, % of control": 88.7, "viability (ATP), % of control": 71.2, "activity call": "inactive"}
{"gene": "Gcfc2", "siRNA no.": 1, "GFP, % of control": 63.5, "viability (ATP), % of control": 77.9, "activity call": "inactive"}
{"gene": "Gcfc2", "siRNA no.": 2, "GFP, % of control": 56.4, "viability (ATP), % of control": 89.5, "activity call": "inactive"}
{"gene": "Gcfc2", "siRNA no.": 3, "GFP, % of control": 80, "viability (ATP), % of control": 89.1, "activity call": "inactive"}
{"gene": "Fgf4", "siRNA no.": 1, "GFP, % of control": 69.8, "viability (ATP), % of control": 88.9, "activity call": "inactive"}
{"gene": "Fgf4", "siRNA no.": 2, "GFP, % of control": 60.6, "viability (ATP), % of control": 92.7, "activity call": "inactive"}
{"gene": "Fgf4", "siRNA no.": 3, "GFP, % of control": 73, "viability (ATP), % of control": 48, "activity call": "inactive"}
{"gene": "Sohlh2", "siRNA no.": 1, "GFP, % of control": 79.5, "viability (ATP), % of control": 92.2, "activity call": "inactive"}
{"gene": "Sohlh2", "siRNA no.": 2, "GFP, % of control": 63.2, "viability (ATP), % of control": 88.8, "activity call": "inactive"}
{"gene": "Sohlh2", "siRNA no.": 3, "GFP, % of control": 102, "viability (ATP), % of control": 109, "activity call": "inactive"}
{"gene": "Mmgt1", "siRNA no.": 1, "GFP, % of control": 88.9, "viability (ATP), % of control": 36.2, "activity call": "inactive"}
{"gene": "Mmgt1", "siRNA no.": 2, "GFP, % of control": 87.5, "viability (ATP), % of control": 90, "activity call": "inactive"}
{"gene": "Mmgt1", "siRNA no.": 3, "GFP, % of control": 111, "viability (ATP), % of control": 93.6, "activity call": "inactive"}
{"gene": "Epha2", "siRNA no.": 1, "GFP, % of control": 94.9, "viability (ATP), % of control": 86.1, "activity call": "inactive"}
{"gene": "Ifna13", "siRNA no.": 1, "GFP, % of control": 49.9, "viability (ATP), % of control": 74.2, "activity call": "inactive"}
{"gene": "Ifna13", "siRNA no.": 2, "GFP, % of control": 82.2, "viability (ATP), % of control": 56.8, "activity call": "inactive"}
{"gene": "Ifna13", "siRNA no.": 3, "GFP, % of control": 56.2, "viability (ATP), % of control": 60.9, "activity call": "inactive"}
{"gene": "Atp6v1b2", "siRNA no.": 1, "GFP, % of control": 86.5, "viability (ATP), % of control": 69.7, "activity call": "inactive"}
{"gene": "Atp6v1b2", "siRNA no.": 2, "GFP, % of control": 45.3, "viability (ATP), % of control": 79.5, "activity call": "inactive"}
{"gene": "Atp6v1b2", "siRNA no.": 3, "GFP, % of control": 84.6, "viability (ATP), % of control": 69.1, "activity call": "inactive"}
{"gene": "Synj2", "siRNA no.": 1, "GFP, % of control": 85.9, "viability (ATP), % of control": 64.5, "activity call": "inactive"}
{"gene": "Synj2", "siRNA no.": 2, "GFP, % of control": 46.9, "viability (ATP), % of control": 41.9, "activity call": "inactive"}
{"gene": "Synj2", "siRNA no.": 3, "GFP, % of control": 87.8, "viability (ATP), % of control": 68.1, "activity call": "inactive"}

6 consecutive reagents from above, for reference:
{"gene": "Ifna13", "siRNA no.": 3, "GFP, % of control": 56.2, "viability (ATP), % of control": 60.9, "activity call": "inactive"}
{"gene": "Atp6v1b2", "siRNA no.": 1, "GFP, % of control": 86.5, "viability (ATP), % of control": 69.7, "activity call": "inactive"}
{"gene": "Atp6v1b2", "siRNA no.": 2, "GFP, % of control": 45.3, "viability (ATP), % of control": 79.5, "activity call": "inactive"}
{"gene": "Atp6v1b2", "siRNA no.": 3, "GFP, % of control": 84.6, "viability (ATP), % of control": 69.1, "activity call": "inactive"}
{"gene": "Synj2", "siRNA no.": 1, "GFP, % of control": 85.9, "viability (ATP), % of control": 64.5, "activity call": "inactive"}
{"gene": "Synj2", "siRNA no.": 2, "GFP, % of control": 46.9, "viability (ATP), % of control": 41.9, "activity call": "inactive"}
